According to article PMC12849132:
Construct, isoform or probe ends are uncertain for at least one entry. Protein sequences can lack the tags named with them.

Molecular target: T1, PhaR (Ralstonia eutropha H16 (Cupriavidus necator)) (UniProt Q0KBP6)
T1 sequence (looked up, limits assumed): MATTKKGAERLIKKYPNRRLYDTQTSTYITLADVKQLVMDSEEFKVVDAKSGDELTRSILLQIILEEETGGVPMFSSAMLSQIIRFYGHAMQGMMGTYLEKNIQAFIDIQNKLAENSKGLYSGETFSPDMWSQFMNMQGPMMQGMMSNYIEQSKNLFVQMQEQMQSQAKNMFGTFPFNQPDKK
Assay: EMSA
Settings: bound less strongly than F4, shifted at lower PhaR than single sites, supramolecular complexes; EMSA: 0-250 ng PhaR, ~75 ng FAM-DNA, 5 uL master mix (1.75 uL 10x TBE, 0.25 uL 10 mg/mL herring sperm DNA, 3 uL DNA), 30 min at 37 C; 7.5% native PAGE; recombinant protein; label: 5'-FAM on downstream primer; probe letters rebuilt from the primers and the genome

Sequence: TCCGCCGTCAAAAGCCATGTTCGTCAGCGCGAACAGTTGGTTCAGACTGGACTTTTGCACTGCAGCAAATTGCTCGGGCATAAAAGGGGACATGCAAAATCTCCTGTGGATTGATCGAACGGATTCGCGCAACAGATTGCAACGTGAATCCGCTTCGGTTTGGCTTCCGGATTGACAGCGCCACCAATCCTGCAGCGCAGCATCCGAGTGCGAATCCTAGAGGGTTTCCTCTAATTTGATCCCTAGGTATATACCCAAAAAGTCTTTAAAACAGGACAATAAAAGTGCATCGTGAATTCGAT (double strand) [F5 (BS2+BS3, phaP3)]
- binding result: binds
